Assay [1] concerns the target T1, neuroserpin (human retina) (human (endogenous in retina)) (UniProt Q99574).
T1 sequence: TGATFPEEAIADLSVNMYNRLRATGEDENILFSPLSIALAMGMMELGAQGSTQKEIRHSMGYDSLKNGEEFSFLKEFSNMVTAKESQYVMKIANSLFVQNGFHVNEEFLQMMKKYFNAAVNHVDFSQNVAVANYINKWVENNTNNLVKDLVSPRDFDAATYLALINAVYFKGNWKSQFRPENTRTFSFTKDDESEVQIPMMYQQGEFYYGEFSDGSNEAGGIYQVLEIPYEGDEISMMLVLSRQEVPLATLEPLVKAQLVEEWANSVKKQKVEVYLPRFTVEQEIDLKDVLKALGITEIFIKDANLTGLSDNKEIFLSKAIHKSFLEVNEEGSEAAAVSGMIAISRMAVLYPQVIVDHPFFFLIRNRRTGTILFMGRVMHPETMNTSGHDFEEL
Nature of the assay: co-IP; anti-neuroserpin antibody cross-linked to sepharose beads (DMP); human (control, glaucoma) or rat (control, high IOP) retinal lysates in 20 mM HEPES pH 7.4, 1% Triton X-100; eluted with 0.2 M Gly-HCl pH 2.5, 0.5 M NaCl; non-reducing western blot for plasmin and neuroserpin; higher molecular mass complex band in glaucoma samples. (In western blotting, separated proteins are transferred to a membrane and probed.)

The target in assay [2] is T2, neuroserpin (rat retina) (rat (endogenous in retina)) (UniProt Q9JLD2).
T2 sequence: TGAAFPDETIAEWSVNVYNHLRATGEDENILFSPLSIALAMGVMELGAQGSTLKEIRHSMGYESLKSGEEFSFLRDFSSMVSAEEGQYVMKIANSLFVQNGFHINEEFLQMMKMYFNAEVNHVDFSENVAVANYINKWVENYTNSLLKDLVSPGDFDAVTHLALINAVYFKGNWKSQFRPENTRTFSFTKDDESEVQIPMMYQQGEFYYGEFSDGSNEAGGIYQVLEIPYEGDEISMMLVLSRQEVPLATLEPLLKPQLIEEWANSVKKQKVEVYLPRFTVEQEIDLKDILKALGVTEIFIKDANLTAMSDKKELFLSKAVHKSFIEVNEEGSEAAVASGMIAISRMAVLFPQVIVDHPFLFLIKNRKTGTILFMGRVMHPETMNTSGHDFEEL
The description is as above.

Assay [3] has as its target plasmin (rat retina) (rat (endogenous in retina)). Nature of the assay: co-IP; reciprocal: anti-plasmin antibody; human or rat retinal lysates from control and glaucoma samples; non-immune IgG as control; western blot for plasmin and neuroserpin; complex band under glaucomatous conditions.
Assay [4] deals with plasmin (human retina) (human (endogenous in retina)). The assay is described as above.

Results are given in words; binding and its absence hold for the method and conditions named. Binding seen in cells or lysates may run through a third protein. A result given as binding can be weak or reduced; the word gives no strength.

With plasmin (human retina) (enzyme), the binding result in assay [1] is reported as “binds”.
plasmin (rat retina) (enzyme): in assay [2], the binding entry is listed as “binds”.

B1: neuroserpin (rat retina) (protein, UniProt Q9JLD2 17-410)
chain: T2 sequence
In the case of B1, the binding entry in assay [3] is recorded as “binds”.

B2: neuroserpin (human retina) (protein, UniProt Q99574 17-410)
chain: T1 sequence
Take B2: the binding result in assay [4] is “binds”.

(Values after paper PMC5566433.)
